The source of these data is paper PMC10329019, “Membrane translocation process revealed by in situ structures of type II secretion system secretins” (Nature Communications, 2023).

No constants are given. Whether binding was seen depends on the method and setting. Some binding calls cover weakened binding; strength is not graded here. Tags and fused reporters may be left off the sequences shown.

This experiment addresses GspDβ secretin (ETEC H10407 strain) with hexahistidine tag, from pBAD-gspDβ-his, in ΔgspS cells (Enterotoxigenic E. coli (ETEC) H10407 strain) (UniProt E3PJ86). As to the kind of experiment: cryo-EM structure; in situ cryo-ET subtomogram averaging of GspDβ particles on the inner membrane of ΔgspS E. coli minicells; 370 particles, C15 symmetry imposed, 14 Å.

B1: GspDβ secretin (ETEC H10407 strain) with hexahistidine tag, from pBAD-gspDβ-his, in ΔgspS cells (protein, UniProt E3PJ86 41-686)
chain: EEATFTANFKDTDLKSFIETVGANLNKTIIMGPGVQGKVSIRTMTPLNERQYYQLFLNLLEAQGYAVVPMENDVLKVVKSSAAKVEPLPLVGEGSDNYAGDEMVTKVVPVRNVSVRELAPILRQMIDSAGSGNVVNYDPSNVIMLTGRASVVERLTEVIQRVDHAGNRTEEVIPLDNASASEIARVLESLTKNSGENQPATLKSQIVADERTNSVIVSGDPATRDKMRRLIRRLDSEMERSGNSQVFYLKYSKAEDLVDVLKQVSGTLTAAKEEAEGTVGSGREIVSIAASKHSNALIVTAPQDIMQSLQSVIEQLDIRRAQVHVEALIVEVAEGSNINFGVQWASKDAGLMQFANGTQIPIGTLGAAISQAKPQKGSTVISENGATTINPDTNGDLSTLAQLLSGFSGTAVGVVKGDWMALVQAVKNDSSSNVLSTPSITTLDNQEAFFMVGQDVPVLTGSTVGSNNSNPFNTVERKKVGIMLKVTPQINEGNAVQMVIEQEVSKVEGQTSLDVVFGERKLKTTVLANDGELIVLGGLMDDQAGESVAKVPLLGDIPLIGNLFKSTADKKEKRNLMVFIRPTILRDGMAADGVSQRKYNYMRAEQIYRDEQGLSLMPHTAQPVLPAQNQALPPEVRAFLNAGRTR
Take B1: the binding result is “binds”.
